PubChem BioAssay AID1508597 – Cure First, 2020

Assay: 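Survival screen with siRNA in ovarian cancer cells derived from patients, with or without rucaparib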 (primary screen)
Cells: human ovarian carcinoma lines grown from tumours: OCI-P5x (papillary serous) and OCI-C5x (clear cell)
Knock-down reagent: siRNA pool against human genes, 1.25 pmol siRNA per well
Timing: 72 h or 96 h, depending on the cell culture
Conditions: rucaparib 20 µM (about IC30) or vehicle, present until read-out
Rucaparib or vehicle: Rucaparib
Cell line: OCI-P5x (serous)
Measurement: 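ATP luminescence measured at 72 or 96 h according to the culture, then normalised and expressed as percent viability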
Reading the numbers: viability, normalised: higher = more viable cells remaining
Hit rule: 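a well counts as a hit if its normalised viability is under 80 percent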
Calls: active = viability under 80%; inactive = viability 80% or more
Shown is a random part of the about 2,100 reagents, in one setting of the screen. 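Calls flag viability under 80% in either arm, not effects specific to rucaparib; the reference for percent is not stated.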 A reagent listed more than once was tested more than once; the source does not tell the runs apart. Not given: the 100% reference.

| gene | technical replicate | viability, normalised (%) | Call |
| --- | --- | --- | --- |
| POU4F1 | 1 | 50 | active |
| POU4F1 | 2 | 48.1 | active |
| POU4F1 | 3 | 43.1 | active |
| PADI4 | 1 | 54.4 | active |
| PADI4 | 2 | 65.7 | active |
| PADI4 | 3 | 53 | active |
| PTK2B | 1 | 108 | inactive |
| PTK2B | 2 | 83.8 | inactive |
| PTK2B | 3 | 70.6 | active |
| MEAF6 | 1 | 53.4 | active |
| MEAF6 | 2 | 53.3 | active |
| MEAF6 | 3 | 55.4 | active |
| MBTD1 | 1 | 39.2 | active |
| MBTD1 | 2 | 40.9 | active |
| MBTD1 | 3 | 50.5 | active |
| UHRF1 | 1 | 43.4 | active |
| UHRF1 | 1 | 51.2 | active |
| UHRF1 | 2 | 57.3 | active |
| UHRF1 | 2 | 47.9 | active |
| UHRF1 | 3 | 53.2 | active |
| UHRF1 | 3 | 44.5 | active |
| ZAP70 | 1 | 87.9 | inactive |
| ZAP70 | 2 | 85.9 | inactive |
| ZAP70 | 3 | 73.2 | active |
| LMTK2 | 1 | 81.7 | inactive |
| LMTK2 | 2 | 102 | inactive |
| LMTK2 | 3 | 83.6 | inactive |
| CARD14 | 1 | 64 | active |
| CARD14 | 2 | 104 | inactive |
| CARD14 | 3 | 71.9 | active |
| PHF5A | 1 | 38.2 | active |
| PHF5A | 2 | 38.7 | active |
| PHF5A | 3 | 42.5 | active |

10 entries from above, reformatted:
gene,technical replicate,"viability, normalised (%)",Call
UHRF1,2,47.9,active
UHRF1,3,53.2,active
UHRF1,3,44.5,active
ZAP70,1,87.9,inactive
ZAP70,2,85.9,inactive
ZAP70,3,73.2,active
LMTK2,1,81.7,inactive
LMTK2,2,102,inactive
LMTK2,3,83.6,inactive
CARD14,1,64,active

Further reagents follow:
| gene | technical replicate | viability, normalised (%) | Call |
| --- | --- | --- | --- |
| PET117 | 1 | 47.8 | active |
| PET117 | 2 | 47.2 | active |
| PET117 | 3 | 52.1 | active |
| EPHB2 | 1 | 94 | inactive |
| EPHB2 | 2 | 80.1 | inactive |
| EPHB2 | 3 | 97.1 | inactive |
| CIT | 1 | 105 | inactive |
| CIT | 2 | 91.4 | inactive |
| CIT | 3 | 82.5 | inactive |
| SMC2 | 1 | 82.1 | inactive |
| SMC2 | 2 | 61.5 | active |
| SMC2 | 3 | 73.2 | active |
| KDM5D | 1 | 50.8 | active |
| KDM5D | 2 | 54.3 | active |
| KDM5D | 3 | 55.9 | active |
| TOP3A | 1 | 93.3 | inactive |
| TOP3A | 2 | 97.3 | inactive |
| TOP3A | 3 | 75.9 | active |
| PMS2P4 | 1 | 88.7 | inactive |
| PMS2P4 | 2 | 78 | active |
| PMS2P4 | 3 | 87.7 | inactive |
| RNF168 | 1 | 40.2 | active |
| RNF168 | 1 | 60.4 | active |
| RNF168 | 2 | 40.5 | active |
| RNF168 | 2 | 82.3 | inactive |
| RNF168 | 3 | 47 | active |
| RNF168 | 3 | 48.1 | active |
